Source: patent publication US8106033B2, “Composition and methods for the treatment of proliferative diseases” (priority 2005, dated 2012)
Some of these results come from one statement about several compounds together.

Test system: DU145 tumor cells (human prostate cancer cell line)
Test: DU145 tumor xenograft in nude mice (Example 7)
Type: in vivo
Conditions: single agents, IP every other day
Protocol: At this time, animals were divided into four groups (N=5) and were treated every other day by IP injections with: […] (b) oxaliplatin (5.0 mg/kg); […] All animals were examined for signs of toxicity. Tumor volumes and body weights were determined weekly. […] The tumor volume is plotted in FIG. 2 as the mean tumor volume±standard error of the mean (SEM) for all animals in each particular dose group.

COc1cc(OC)c(/C=C/S(=O)(=O)Cc2ccc(OC)c(NCC(=O)[O-])c2)c(OC)c1.[Na+] [(E)-2-(5-((2,4,6-trimethoxystyrylsulfonyl)methyl)-2-methoxyphenylamino)acetic acid sodium salt]
tumor growth delay, time required for treated tumors to increase to size of control tumors: greater than 35 days
